Reference: the supplement of paper PMC10689618
Counter-ions that a name gives are not always drawn. This is one part of the list. Single values are uncertain, as repeats are few or missing.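 Primary human fetal astrocytes engulfed labelled rat cortical synaptosomes, measured as a red/green ratio corrected for calcein live-cell signal and scaled to the plate median. Toxicity meant calcein falling over 30%; decreased phagocytosis meant below 70% of median above 5 µM.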

tested on: Human fetal astrocytes; assay: loss of total cells relative to no-compound high-control median (toxicity); higher = more toxic (fewer cells); conditions: 11.11 µM; 24 h

Row | SMILES | loss of total cells [%]
1 | COc1cc(O)cc(OC)c1OC | 1.3
2 | Nc1ccc(C(=O)O)c(O)c1 | -14.1
3 | Cc1cc(-c2ccccc2)nnc1NCCN1CCOCC1 | -25
4 | C=C1c2c(Cl)ccc(O)c2C(O)=C2C(=O)[C@]3(O)C(O)=C(C(N)=O)C(=O)[C@@H](N(C)C)[C@@H]3[C@@H](O)[C@H]12.O=C(O)c1cc(S(=O)(=O)O)ccc1O | 23.4
5 | CCCCCCCCCc1ccc(OCCOCCOCCOCCOCCOCCOCCOCCOCCO)cc1 | 26.5
6 | O=C1CCc2ccc(OCCCCN3CCN(c4cccc(Cl)c4Cl)CC3)cc2N1 | 14.8
7 | NC(=O)c1cc[n+](CC2=C(C(=O)O)N3C(=O)[C@@H](NC(=O)[C@@H](c4ccccc4)S(=O)(=O)[O-])[C@H]3SC2)cc1 | 6.9
8 | CC(C)=CC1C(C(=O)O)C1(C)C (centres undefined) | 0.7
9 | CCC(C)C(=O)OC1[C@@H]2CC3=C4CC(=O)O[C@@H](c5ccoc5)[C@]4(C)CCC3[C@@](C)(C2=O)[C@@H](CC(=O)OC)C1(C)C (some centres undefined) | 1.3
10 | C/C=C1\[C@H]2C=C(C)C[C@]1(N)c1ccc(=O)[nH]c1C2 | 10.1
11 | Nc1cc(C(Cl)=C(Cl)Cl)c(S(N)(=O)=O)cc1S(N)(=O)=O | -12.1
12 | CC(C)(C(=O)O)c1ccc(C(O)CCCN2CCC(C(O)(c3ccccc3)c3ccccc3)CC2)cc1 (centres undefined) [Fexofenadine hydrochloride] | 36.4
13 | CO[C@@]1(NC(=O)C(C(=O)O)c2ccc(O)cc2)C(=O)N2C(C(=O)O)=C(CSc3nnnn3C)CO[C@@H]21 (some centres undefined) | -10.9
14 | Cc1ncc(CO)c(CO)c1O | -6.9
15 | CCOc1ccc(NC(C)=O)cc1 | 11.2
16 | COc1cc(C(=O)N2CCOCC2)cc(OC)c1OC | -12.8
17 | CO[C@H]1C[C@H](O[C@H]2[C@H](C)[C@@H](O[C@@H]3O[C@H](C)C[C@H](N(C)C)[C@H]3O)[C@@H](C)C[C@@]3(CO3)C(=O)[C@H](C)[C@@H](O)[C@@H](C)[C@@H](C)OC(=O)[C@@H]2C)O[C@@H](C)[C@@H]1O | -6.1
18 | COC(=O)[C@H]1[C@H]2C[C@H]3c4[nH]c5cc(OC)ccc5c4CCN3C[C@H]2C[C@@H](OC(=O)c2cc(OC)c(OC)c(OC)c2)[C@@H]1OC | -2.9
19 | CCOc1ccc(C(=O)c2ccc(OC)c(O)c2O)cc1 | 54.8
20 | Cc1ncc(C[n+]2csc(CCO)c2C)c(N)n1 | 29.8

Row | SMILES | loss of total cells [%]
21 | CCC(=O)OCC(=O)[C@@]1(OC(=O)CC)[C@@H](C)C[C@H]2[C@@H]3CCC4=CC(=O)C=C[C@]4(C)[C@@]3(F)[C@@H](O)C[C@@]21C | 44.9
22 | O=C1C(CC[S+]([O-])c2ccccc2)C(=O)N(c2ccccc2)N1c1ccccc1 (centres undefined) | -11.2
23 | CCCN(CCC)S(=O)(=O)c1ccc(C(=O)O)cc1 | -11.8
24 | CC1(C)S[C@@H]2[C@H](N3C(=O)[C@@H](c4ccccc4)NC3(C)C)C(=O)N2[C@H]1C(=O)O | 1.4
25 | COc1c(O)cc(O)cc1O | 36.8
26 | Cc1c(N(C)C)c(=O)n(-c2ccccc2)n1C | 1.3
27 | C[N+](C)(C)CCOP(=O)(O)OP(=O)([O-])OC[C@H]1O[C@@H](n2ccc(N)nc2=O)[C@H](O)[C@@H]1O | 23.3
28 | COC(=O)C[C@H]1C(C)(C)[C@@H](OC(C)=O)[C@@H]2CC3C4CC(=O)O[C@@H](c5ccoc5)[C@]4(C)CCC3[C@@]1(C)C2=O (some centres undefined) | 35.5
29 | CCOc1ccc2ccccc2c1C(=O)N[C@@H]1C(=O)N2[C@@H]1SC(C)(C)[C@@H]2C(=O)O | -2.3
30 | CN1C(=O)OC(C)(C)C1=O | 4.3
31 | Cn1c([N+](=O)[O-])cnc1COC(N)=O | -26.6
32 | OC(CCN1CCCCC1)(c1ccccc1)C1CC2C=CC1C2 (centres undefined) | -21.3
33 | COc1c(-c2coc3cc4c(cc3c2=O)CC(O)C(C)(C)O4)ccc2c1C=CC(C)(C)O2 (centres undefined) | 25.2
34 | NCCOB(c1ccccc1)c1ccccc1 | -10.1
35 | CC1=CCCC(C)=CCC(C)(C)C=CC1 [HUMULENE (alpha)] | 12.8
36 | C=CC(C1=CC(=O)C(OC)=CC1=O)c1ccc(O)cc1 (centres undefined) | 54.2
37 | CCC[C@@H]1C[C@@H](C(=O)N[C@@H]([C@H]2O[C@H](SC)[C@H](O)[C@@H](O)[C@H]2O)[C@@H](C)O)N(C)C1 | -3.7
38 | CCOC(=O)c1c(C)cc(O)cc1O | 1.9
39 | Nc1ccccc1C(=O)CC(N)C(=O)O (centres undefined) | 10.8

Molecules listed so far that have an NH in an aromatic ring, in the order listed:
Row | SMILES | loss of total cells [%]
10 | C/C=C1\[C@H]2C=C(C)C[C@]1(N)c1ccc(=O)[nH]c1C2 | 10.1
18 | COC(=O)[C@H]1[C@H]2C[C@H]3c4[nH]c5cc(OC)ccc5c4CCN3C[C@H]2C[C@@H](OC(=O)c2cc(OC)c(OC)c(OC)c2)[C@@H]1OC | -2.9
